For at least one compound, name, drawing or mass did not settle the structure.
How the values were obtained:
KCNQ channels = assay: Patch-clamp of KCNQ currents in rat airway myocytes (ASMCs); format: cell-based
Description: An investigation relating to these aspects of the invention was conducted to determine whether KCNQ (Kv7) K^+ channels are expressed and functional in rat airway myocytes. To accomplish this, a combination of real time polymerase chain reaction (RT-PCR) and patch-clamp electrophysiology was used. Isolation of rat ASMCs from bronchial strips for the patch-clamp electrophysiology as well as RNA isolation from rat trachea for the RT-PCR were performed using methods as described in Brueggemann et al., “KCNQ (Kv7) potassium channel activators as bronchodilators: combination with a β2-adrenergic agonist enhances relaxation of rat airways,” Am J Physiol Lung Cell Mol Physiol (in press), incorporated herein by reference.
Therefore K^+ currents in enzymatically dispersed rat airway myocytes were measured using patch-clamp electrophysiology.
After 10 minutes of MeCh treatment, the time course recording was interrupted for 10 minutes for measurement of steady-state I-V relationship (time break indicated by vertical gray lines). Then, after an additional one minute recording at −20 mV holding voltage, retigabine (10 μM) was applied in the presence of MeCh for 5 minutes. The time course recording was interrupted again for ten minutes for measurement of steady-state I-V relationship and, after an additional one minute time course recording, XE991 (1 μM) was applied in the presence of MeCh and retigabine for ten minutes.
The investigation examined whether the bronchorelaxant effects of long-acting β2-adrenergic receptor agonist, formoterol, were mediated via activation of KCNQ channels in rat airway myocytes. […] The time course recording was interrupted for 10 minutes for measurement of steady-state I-V relationship (time break indicated by vertical gray lines). After an additional 5 minutes recording, retigabine (10 μM) was applied in the continued presence of formoterol. The time course recording was interrupted again for 10 minutes for recording of steady-state I-V curves, and, after an additional 5 minutes recording, XE991 (1 μM) was applied in the presence of retigabine.

conscious mice = details: inhaled; cited from earlier work
[1] = system: ovalbumin-sensitized guinea pigs; assay: Aerosolized ovalbumin challenge with inhaled retigabine in guinea pigs
[2] = system: rat bronchioles in precision-cut lung slices (PCLS); assay: Airway constriction/relaxation in rat precision-cut lung slices (PCLS); details: with XE991 10 μM
Description: Another investigation was performed to investigate the ability of KCNQ channel activators to attenuate MeCh-induced concentration-dependent constriction of rat bronchioles in precision-cut lung slices (PCLS). The PCLS were prepared using methods described by Brueggemann et al., “KCNQ (Kv7) potassium channel activators as bronchodilators: combination with a β2-adrenergic agonist enhances relaxation of rat airways,” Am J Physiol Lung Cell Mol Physiol (in press). PCLS were superfused with increasing concentrations of MeCh in the range from 100 nM to 1 μM. Each concentration was applied for thirty minutes, followed by a forty-five minute washout prior to application of the next MeCh concentration (FIG. 12A,B). […] Percent of airway constriction, relative to the cross-sectional area measured before the initial MeCh treatment, was calculated for each MeCh concentration and plotted against concentration of MeCh.
Bronchorelaxant effects were further assessed by measuring the extent of bronchoconstriction when MeCh was applied in the absence or presence of different structurally unrelated KCNQ channel activators (or vehicle).
FIG. 13C is a representative time course of changes in lumenal area of a small airway in rat PCLS on application of 230 nM MeCh (thirty minutes) followed by application of 230 nM MeCh in the presence of 10 nM formoterol (FF, thirty minutes). […]

CCOC(=O)Nc1ccc(NCc2ccc(F)cc2)cc1N [retigabine]
effect on KCNQ current in the presence of formoterol (KCNQ channels; 10 μM with 10 nM formoterol): significantly increased the current
restoration of KCNQ currents in continued presence of MeCh (KCNQ channels; 10 μM with 230 nM MeCh): more than fully restored the currents
effect on KCNQ currents at −20 mV holding voltage (KCNQ channels; rat ASMCs, 10 μM): enhanced
threshold of KCNQ channel activation (KCNQ channels; voltage step protocol, retigabine 10 μM, ZnPyr 100 nM): shifted the threshold of channel activation to more negative voltages
effect on MeCh-induced bronchoconstriction (conscious mice): significant albeit transient bronchorelaxant effect
respiratory symptoms on aerosolized ovalbumin ([1]; 10 or 100 μM): severe asthmatic attacks
respiratory symptoms on aerosolized ovalbumin ([1]; aerosolized 1 mM): almost completely abrogated
bronchorelaxant action when XE991 is included [2]: suppressed or prevented

Reference: patent publication US9326955B2, “Combination pharmaceuticals and methods thereof using proteinacious channels as treatments for medical conditions” (Loyola University Chicago, priority 2008, dated 2016)
